Measurements published in paper PMC5440813.
Results are given in words; binding and its absence hold for the method and conditions named. For some assays here: Binding seen in cells or lysates may run through a third protein. Some results given as binding are weak or reduced against the parent protein; the word gives no strength.

Tests used:
[1] = biological target: T1, aconitase 3 (ACO3) (Arabidopsis thaliana) (UniProt Q9SIB9); experiment: two-hybrid; yeast two-hybrid, mating of AH109 and Y187, plates without Leu, Trp and His with 3-aminotriazole; colonies scored at 3, 5 and 8 days, positive: colonies at 3 or 5 days
T1 sequence: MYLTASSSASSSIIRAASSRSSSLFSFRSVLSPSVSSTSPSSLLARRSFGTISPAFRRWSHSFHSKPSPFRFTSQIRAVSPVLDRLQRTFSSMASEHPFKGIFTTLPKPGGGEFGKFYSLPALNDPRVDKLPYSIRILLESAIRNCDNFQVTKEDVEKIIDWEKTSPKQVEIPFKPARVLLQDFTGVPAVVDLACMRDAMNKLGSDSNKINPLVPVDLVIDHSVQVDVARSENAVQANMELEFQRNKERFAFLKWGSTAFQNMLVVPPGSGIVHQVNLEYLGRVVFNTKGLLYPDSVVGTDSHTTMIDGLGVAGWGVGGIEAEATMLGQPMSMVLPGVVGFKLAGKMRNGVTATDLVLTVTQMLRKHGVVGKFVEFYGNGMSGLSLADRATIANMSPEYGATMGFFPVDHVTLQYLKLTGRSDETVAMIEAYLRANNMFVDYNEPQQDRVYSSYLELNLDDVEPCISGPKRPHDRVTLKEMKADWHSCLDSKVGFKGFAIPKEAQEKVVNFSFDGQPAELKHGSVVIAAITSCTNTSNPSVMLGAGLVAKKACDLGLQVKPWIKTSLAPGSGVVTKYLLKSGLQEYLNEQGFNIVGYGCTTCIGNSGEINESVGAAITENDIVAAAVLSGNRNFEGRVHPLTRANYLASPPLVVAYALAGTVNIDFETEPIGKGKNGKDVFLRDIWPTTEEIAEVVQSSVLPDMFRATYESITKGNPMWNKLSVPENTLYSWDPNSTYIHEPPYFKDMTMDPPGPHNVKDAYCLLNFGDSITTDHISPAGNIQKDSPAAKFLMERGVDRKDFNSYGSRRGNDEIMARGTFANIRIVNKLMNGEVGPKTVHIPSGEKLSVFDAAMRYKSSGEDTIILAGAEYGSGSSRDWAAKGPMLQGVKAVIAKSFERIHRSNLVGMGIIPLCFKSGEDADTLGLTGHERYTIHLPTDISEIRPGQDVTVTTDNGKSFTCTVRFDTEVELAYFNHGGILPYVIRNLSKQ

[2] = biological target: T1, aconitase 3 (ACO3) (Arabidopsis thaliana); experiment: split reporter; split luciferase (split-LUC) in transfected Arabidopsis mesophyll protoplasts, 96-well plate, ViviRen substrate, relative luminescence; positive: top 10% of scores (3.7)
[3] = biological target: T2, ACO2-VYNE (Arabidopsis thaliana) (UniProt Q94A28); experiment: split reporter; BiFC: SCYCE- and VYNE-tagged proteins transiently expressed in Arabidopsis mesophyll protoplasts, confocal microscopy with MitoTracker orange
T2 sequence: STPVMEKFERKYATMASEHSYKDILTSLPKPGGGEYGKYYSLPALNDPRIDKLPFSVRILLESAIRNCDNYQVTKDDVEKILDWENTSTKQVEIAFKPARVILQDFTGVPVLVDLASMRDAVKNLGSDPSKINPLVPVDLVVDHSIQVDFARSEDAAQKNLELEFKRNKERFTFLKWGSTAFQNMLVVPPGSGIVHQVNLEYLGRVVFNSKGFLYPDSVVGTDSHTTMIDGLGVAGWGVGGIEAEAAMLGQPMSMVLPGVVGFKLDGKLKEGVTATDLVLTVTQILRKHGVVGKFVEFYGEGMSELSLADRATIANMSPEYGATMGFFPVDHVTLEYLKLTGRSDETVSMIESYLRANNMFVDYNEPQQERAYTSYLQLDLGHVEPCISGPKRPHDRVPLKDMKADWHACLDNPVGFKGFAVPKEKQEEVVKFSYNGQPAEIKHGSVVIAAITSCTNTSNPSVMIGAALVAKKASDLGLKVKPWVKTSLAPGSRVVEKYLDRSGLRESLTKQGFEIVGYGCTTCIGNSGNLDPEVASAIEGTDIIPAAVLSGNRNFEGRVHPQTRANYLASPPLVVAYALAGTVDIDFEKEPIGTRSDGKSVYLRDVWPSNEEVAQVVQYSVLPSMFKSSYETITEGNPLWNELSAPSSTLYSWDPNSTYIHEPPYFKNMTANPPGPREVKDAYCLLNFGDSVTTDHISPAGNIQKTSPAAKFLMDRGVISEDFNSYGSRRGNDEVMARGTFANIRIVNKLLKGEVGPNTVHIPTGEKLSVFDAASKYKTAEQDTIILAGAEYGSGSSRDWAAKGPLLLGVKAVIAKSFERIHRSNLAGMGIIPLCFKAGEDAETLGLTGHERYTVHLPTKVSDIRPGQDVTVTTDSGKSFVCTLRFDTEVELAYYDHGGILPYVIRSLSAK

[4] = biological target: T3, ACO3-VYNE (Arabidopsis thaliana) (UniProt Q9SIB9); experiment: as above
T3 sequence: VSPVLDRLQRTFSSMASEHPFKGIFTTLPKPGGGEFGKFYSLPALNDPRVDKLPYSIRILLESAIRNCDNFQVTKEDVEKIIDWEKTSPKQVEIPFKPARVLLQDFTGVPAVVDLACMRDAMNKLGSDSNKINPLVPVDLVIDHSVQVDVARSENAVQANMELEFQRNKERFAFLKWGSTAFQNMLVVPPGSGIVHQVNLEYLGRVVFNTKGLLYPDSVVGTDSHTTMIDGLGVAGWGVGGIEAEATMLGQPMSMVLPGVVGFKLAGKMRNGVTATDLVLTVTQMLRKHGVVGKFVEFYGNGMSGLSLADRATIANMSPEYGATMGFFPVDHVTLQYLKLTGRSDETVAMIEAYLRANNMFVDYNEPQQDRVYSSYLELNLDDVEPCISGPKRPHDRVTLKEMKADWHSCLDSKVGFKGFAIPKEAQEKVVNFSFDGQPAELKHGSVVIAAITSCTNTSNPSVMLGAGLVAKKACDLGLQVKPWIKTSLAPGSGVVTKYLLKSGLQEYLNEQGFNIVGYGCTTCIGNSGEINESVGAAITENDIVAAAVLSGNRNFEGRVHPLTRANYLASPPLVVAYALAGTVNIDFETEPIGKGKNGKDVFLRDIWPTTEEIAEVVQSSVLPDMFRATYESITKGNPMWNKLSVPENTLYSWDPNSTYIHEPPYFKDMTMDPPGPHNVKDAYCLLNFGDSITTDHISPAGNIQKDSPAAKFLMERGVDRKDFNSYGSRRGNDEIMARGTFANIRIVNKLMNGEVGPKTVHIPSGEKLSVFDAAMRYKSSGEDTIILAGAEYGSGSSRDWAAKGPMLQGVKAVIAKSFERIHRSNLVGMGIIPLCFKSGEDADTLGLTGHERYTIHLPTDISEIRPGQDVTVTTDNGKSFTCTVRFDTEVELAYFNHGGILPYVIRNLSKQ

[5] = biological target: T4, IDH6-SCYCE (Arabidopsis thaliana) (UniProt Q8LG77); experiment: as above
T4 sequence: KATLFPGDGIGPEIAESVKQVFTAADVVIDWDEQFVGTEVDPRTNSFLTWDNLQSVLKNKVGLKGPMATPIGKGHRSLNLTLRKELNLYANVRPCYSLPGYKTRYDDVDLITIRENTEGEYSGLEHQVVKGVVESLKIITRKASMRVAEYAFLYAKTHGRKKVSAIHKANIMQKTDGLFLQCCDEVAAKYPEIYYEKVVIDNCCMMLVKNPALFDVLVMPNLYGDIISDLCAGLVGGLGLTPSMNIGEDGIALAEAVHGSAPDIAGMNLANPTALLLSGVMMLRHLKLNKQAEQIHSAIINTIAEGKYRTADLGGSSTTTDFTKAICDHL

B1: aconitase 2 (ACO2) (enzyme, UniProt Q94A28 1-995)
chain: MYRRATSGVRSASARLSSSLSRIASSETASVSAPSASSLRNQTNRSKSFSSALRSFRVCSASTRWSHGGSWGSPASLRAQARNSTPVMEKFERKYATMASEHSYKDILTSLPKPGGGEYGKYYSLPALNDPRIDKLPFSVRILLESAIRNCDNYQVTKDDVEKILDWENTSTKQVEIAFKPARVILQDFTGVPVLVDLASMRDAVKNLGSDPSKINPLVPVDLVVDHSIQVDFARSEDAAQKNLELEFKRNKERFTFLKWGSTAFQNMLVVPPGSGIVHQVNLEYLGRVVFNSKGFLYPDSVVGTDSHTTMIDGLGVAGWGVGGIEAEAAMLGQPMSMVLPGVVGFKLDGKLKEGVTATDLVLTVTQILRKHGVVGKFVEFYGEGMSELSLADRATIANMSPEYGATMGFFPVDHVTLEYLKLTGRSDETVSMIESYLRANNMFVDYNEPQQERAYTSYLQLDLGHVEPCISGPKRPHDRVPLKDMKADWHACLDNPVGFKGFAVPKEKQEEVVKFSYNGQPAEIKHGSVVIAAITSCTNTSNPSVMIGAALVAKKASDLGLKVKPWVKTSLAPGSRVVEKYLDRSGLRESLTKQGFEIVGYGCTTCIGNSGNLDPEVASAIEGTDIIPAAVLSGNRNFEGRVHPQTRANYLASPPLVVAYALAGTVDIDFEKEPIGTRSDGKSVYLRDVWPSNEEVAQVVQYSVLPSMFKSSYETITEGNPLWNELSAPSSTLYSWDPNSTYIHEPPYFKNMTANPPGPREVKDAYCLLNFGDSVTTDHISPAGNIQKTSPAAKFLMDRGVISEDFNSYGSRRGNDEVMARGTFANIRIVNKLLKGEVGPNTVHIPTGEKLSVFDAASKYKTAEQDTIILAGAEYGSGSSRDWAAKGPLLLGVKAVIAKSFERIHRSNLAGMGIIPLCFKAGEDAETLGLTGHERYTVHLPTKVSDIRPGQDVTVTTDSGKSFVCTLRFDTEVELAYYDHGGILPYVIRSLSAK
[1]
  binding: binds
[2]
  binding: binds

B2: CSY4-SCYCE (enzyme, UniProt P20115 17-474)
chain: VQGQQSSLSNSVRWIQMQSSTDLDLKSQLQELIPEQQDRLKKLKSEHGKVQLGNITVDMVIGGMRGMTGLLWETSLLDPEEGIRFRGLSIPECQKVLPTAQSGAEPLPEGLLWLLLTGKVPSKEQVEALSKDLANRAAVPDYVYNAIDALPSTAHPMTQFASGVMALQVQSEFQKAYENGIHKSKFWEPTYEDCLNLIARVPVVAAYVYRRMYKNGDSIPSDKSLDYGANFSHMLGFDDEKVKELMRLYITIHSDHEGGNVSAHTGHLVGSALSDPYLSFAAALNGLAGPLHGLANQEVLLWIKSVVEECGEDISKEQLKEYVWKTLNSGKVIPGYGHGVLRNTDPRYVCQREFALKHLPDDPLFQLVSKLYEVVPPVLTELGKVKNPWPNVDAHSGVLLNHYGLTEARYYTVLFGVSRSLGICSQLIWDRALGLALERPKSVTMDWLEAHCKKASSA
[3]
  binding: binds
[4]
  binding: binds

B3: ACO3-VYNE (enzyme, UniProt Q9SIB9 79-990)
chain: VSPVLDRLQRTFSSMASEHPFKGIFTTLPKPGGGEFGKFYSLPALNDPRVDKLPYSIRILLESAIRNCDNFQVTKEDVEKIIDWEKTSPKQVEIPFKPARVLLQDFTGVPAVVDLACMRDAMNKLGSDSNKINPLVPVDLVIDHSVQVDVARSENAVQANMELEFQRNKERFAFLKWGSTAFQNMLVVPPGSGIVHQVNLEYLGRVVFNTKGLLYPDSVVGTDSHTTMIDGLGVAGWGVGGIEAEATMLGQPMSMVLPGVVGFKLAGKMRNGVTATDLVLTVTQMLRKHGVVGKFVEFYGNGMSGLSLADRATIANMSPEYGATMGFFPVDHVTLQYLKLTGRSDETVAMIEAYLRANNMFVDYNEPQQDRVYSSYLELNLDDVEPCISGPKRPHDRVTLKEMKADWHSCLDSKVGFKGFAIPKEAQEKVVNFSFDGQPAELKHGSVVIAAITSCTNTSNPSVMLGAGLVAKKACDLGLQVKPWIKTSLAPGSGVVTKYLLKSGLQEYLNEQGFNIVGYGCTTCIGNSGEINESVGAAITENDIVAAAVLSGNRNFEGRVHPLTRANYLASPPLVVAYALAGTVNIDFETEPIGKGKNGKDVFLRDIWPTTEEIAEVVQSSVLPDMFRATYESITKGNPMWNKLSVPENTLYSWDPNSTYIHEPPYFKDMTMDPPGPHNVKDAYCLLNFGDSITTDHISPAGNIQKDSPAAKFLMERGVDRKDFNSYGSRRGNDEIMARGTFANIRIVNKLMNGEVGPKTVHIPSGEKLSVFDAAMRYKSSGEDTIILAGAEYGSGSSRDWAAKGPMLQGVKAVIAKSFERIHRSNLVGMGIIPLCFKSGEDADTLGLTGHERYTIHLPTDISEIRPGQDVTVTTDNGKSFTCTVRFDTEVELAYFNHGGILPYVIRNLSKQ
[5]
  binding: binds
